According to publication PMC9277853:
These are yes or no findings as the source states them, for the method shown. Binding seen in cells or lysates may run through a third protein. Here binding means that the protein was enriched with, or labelled near, the bait; the list need not be complete. Sequences can lack the tags named with a protein.

T1: Flag-HA-RNF8 (UniProt O76064)
T1 sequence: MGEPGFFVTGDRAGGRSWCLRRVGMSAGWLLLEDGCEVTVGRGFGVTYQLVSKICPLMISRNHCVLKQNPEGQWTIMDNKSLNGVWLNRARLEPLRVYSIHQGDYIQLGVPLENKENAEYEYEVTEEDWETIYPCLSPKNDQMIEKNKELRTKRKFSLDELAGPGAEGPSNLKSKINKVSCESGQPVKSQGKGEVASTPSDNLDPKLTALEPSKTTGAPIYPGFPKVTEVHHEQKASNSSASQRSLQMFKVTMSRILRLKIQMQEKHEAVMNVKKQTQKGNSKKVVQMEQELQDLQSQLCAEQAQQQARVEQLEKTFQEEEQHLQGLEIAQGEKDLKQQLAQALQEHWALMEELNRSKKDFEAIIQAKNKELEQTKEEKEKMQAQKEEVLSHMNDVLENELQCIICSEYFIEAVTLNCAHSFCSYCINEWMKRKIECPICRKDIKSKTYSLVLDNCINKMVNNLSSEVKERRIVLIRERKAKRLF

B1: SRSF2 (protein, UniProt Q01130 1-221)
chain: MSYGRPPPDVEGMTSLKVDNLTYRTSPDTLRRVFEKYGRVGDVYIPRDRYTKESRGFAFVRFHDKRDAEDAMDAMDGAVLDGRELRVQMARYGRPPDSHHSRRGPPPRRYGGGGYGRRSRSPRRRRRSRSRSRSRSRSRSRSRYSRSKSRSRTRSRSRSTSKSRSARRSKSKSSSVSRSRSRSRSRSRSRSPPPVSKRESKSRSRSKSPPKSPEEEGAVSS
B2: PRPF6 (protein, UniProt O94906 1-941)
chain: MNKKKKPFLGMPAPLGYVPGLGRGATGFTTRSDIGPARDANDPVDDRHAPPGKRTVGDQMKKNQAADDDDEDLNDTNYDEFNGYAGSLFSSGPYEKDDEEADAIYAALDKRMDERRKERREQREKEEIEKYRMERPKIQQQFSDLKRKLAEVTEEEWLSIPEVGDARNKRQRNPRYEKLTPVPDSFFAKHLQTGENHTSVDPRQTQFGGLNTPYPGGLNTPYPGGMTPGLMTPGTGELDMRKIGQARNTLMDMRLSQVSDSVSGQTVVDPKGYLTDLNSMIPTHGGDINDIKKARLLLKSVRETNPHHPPAWIASARLEEVTGKLQVARNLIMKGTEMCPKSEDVWLEAARLQPGDTAKAVVAQAVRHLPQSVRIYIRAAELETDIRAKKRVLRKALEHVPNSVRLWKAAVELEEPEDARIMLSRAVECCPTSVELWLALARLETYENARKVLNKARENIPTDRHIWITAAKLEEANGNTQMVEKIIDRAITSLRANGVEINREQWIQDAEECDRAGSVATCQAVMRAVIGIGIEEEDRKHTWMEDADSCVAHNALECARAIYAYALQVFPSKKSVWLRAAYFEKNHGTRESLEALLQRAVAHCPKAEVLWLMGAKSKWLAGDVPAARSILALAFQANPNSEEIWLAAVKLESENDEYERARRLLAKARSSAPTARVFMKSVKLEWVQDNIRAAQDLCEEALRHYEDFPKLWMMKGQIEEQKEMMEKAREAYNQGLKKCPHSTPLWLLLSRLEEKIGQLTRARAILEKSRLKNPKNPGLWLESVRLEYRAGLKNIANTLMAKALQECPNSGILWSEAIFLEARPQRRTKSVDALKKCEHDPHVLLAVAKLFWSQRKITKAREWFHRTVKIDSDLGDAWAFFYKFELQHGTEEQQEEVRKRCESAEPRHGELWCAVSKDIANWQKKIGDILRLVAGRIKNTF
B3: GTF2H3 (protein, UniProt Q13889 1-308)
chain: MVSDEDELNLLVIVVDANPIWWGKQALKESQFTLSKCIDAVMVLGNSHLFMNRSNKLAVIASHIQESRFLYPGKNGRLGDFFGDPGNPPEFNPSGSKDGKYELLTSANEVIVEEIKDLMTKSDIKGQHTETLLAGSLAKALCYIHRMNKEVKDNQEMKSRILVIKAAEDSALQYMNFMNVIFAAQKQNILIDACVLDSDSGLLQQACDITGGLYLKVPQMPSLLQYLLWVFLPDQDQRSQLILPPPVHVDYRAACFCHRNLIEIGYVCSVCLSIFCNFSPICTTCETAFKISLPPVLKAKKKKLKVSA
B4: MCM3 (protein, UniProt P25205 1-808)
chain: MAGTVVLDDVELREAQRDYLDFLDDEEDQGIYQSKVRELISDNQYRLIVNVNDLRRKNEKRANRLLNNAFEELVAFQRALKDFVASIDATYAKQYEEFYVGLEGSFGSKHVSPRTLTSCFLSCVVCVEGIVTKCSLVRPKVVRSVHYCPATKKTIERRYSDLTTLVAFPSSSVYPTKDEENNPLETEYGLSVYKDHQTITIQEMPEKAPAGQLPRSVDVILDDDLVDKAKPGDRVQVVGTYRCLPGKKGGYTSGTFRTVLIACNVKQMSKDAQPSFSAEDIAKIKKFSKTRSKDIFDQLAKSLAPSIHGHDYVKKAILCLLLGGVERDLENGSHIRGDINILLIGDPSVAKSQLLRYVLCTAPRAIPTTGRGSSGVGLTAAVTTDQETGERRLEAGAMVLADRGVVCIDEFDKMSDMDRTAIHEVMEQGRVTIAKAGIHARLNARCSVLAAANPVYGRYDQYKTPMENIGLQDSLLSRFDLLFIMLDQMDPEQDREISDHVLRMHRYRAPGEQDGDAMPLGSAVDILATDDPNFSQEDQQDTQIYEKHDNLLHGTKKKKEKMVSAAFMKKYIHVAKIIKPVLTQESATYIAEEYSRLRSQDSMSSDTARTSPVTARTLETLIRLATAHAKARMSKTVDLQDAEEAVELVQYAYFKKVLEKEKKRKKRSEDESETEDEEEKSQEDQEQKRKRRKTRQPDAKDGDSYDPYDFSDTEEEMPQVHTPKTADSQETKESQKVELSESRLKAFKVALLDVFREAHAQSIGMNRLTESINRDSEEPFSSVEIQAALSKMQDDNQVMVSEGIIFLI
B5: TERF2IP (protein, UniProt Q9NYB0 1-399)
chain: MAEAMDLGKDPNGPTHSSTLFVRDDGSSMSFYVRPSPAKRRLSTLILHGGGTVCRVQEPGAVLLAQPGEALAEASGDFISTQYILDCVERNERLELEAYRLGPASAADTGSEAKPGALAEGAAEPEPQRHAGRIAFTDADDVAILTYVKENARSPSSVTGNALWKAMEKSSLTQHSWQSLKDRYLKHLRGQEHKYLLGDAPVSPSSQKLKRKAEEDPEAADSGEPQNKRTPDLPEEEYVKEEIQENEEAVKKMLVEATREFEEVVVDESPPDFEIHITMCDDDPPTPEEDSETQPDEEEEEEEEKVSQPEVGAAIKIIRQLMEKFNLDLSTVTQAFLKNSGELEATSAFLASGQRADGYPIWSRQDDIDLQKDDEDTREALVKKFGAQNVARRIEFRKK
B6: MDH2 (protein, UniProt P40926 25-338)
chain: AKVAVLGASGGIGQPLSLLLKNSPLVSRLTLYDIAHTPGVAADLSHIETKAAVKGYLGPEQLPDCLKGCDVVVIPAGVPRKPGMTRDDLFNTNATIVATLTAACAQHCPEAMICVIANPVNSTIPITAEVFKKHGVYNPNKIFGVTTLDIVRANTFVAELKGLDPARVNVPVIGGHAGKTIIPLISQCTPKVDFPQDQLTALTGRIQEAGTEVVKAKAGAGSATLSMAYAGARFVFSLVDAMNGKEGVVECSFVKSQETECTYFSTPLLLGKKGIEKNLGIGKVSSFEEKMISDAIPELKASIKKGEDFVKTLK

What follows are binders tested against T1, Flag-HA-RNF8 (assay: affinity purification with mass spectrometry; two-way screen: cells transfected with Flag-HA-RNF8, IP on anti-Flag-M2 beads, eluate IP on anti-HA beads; in parallel IP with an anti-RNF8 antibody; SDS-PAGE, silver staining, bands to LC-MS; the two protein sets intersected (218 proteins)).

binding, binds:
B1
B2
B3
B4
B5
B6
